Measurements reported in the supplement of paper PMC10849652.
This is one part of the list.

The chains behind the UniProt entries cited, without tags or fusion partners. Where a name states a change or a piece, a line headed by the entry shows the natural chain unless it says otherwise.
UniProt O75387: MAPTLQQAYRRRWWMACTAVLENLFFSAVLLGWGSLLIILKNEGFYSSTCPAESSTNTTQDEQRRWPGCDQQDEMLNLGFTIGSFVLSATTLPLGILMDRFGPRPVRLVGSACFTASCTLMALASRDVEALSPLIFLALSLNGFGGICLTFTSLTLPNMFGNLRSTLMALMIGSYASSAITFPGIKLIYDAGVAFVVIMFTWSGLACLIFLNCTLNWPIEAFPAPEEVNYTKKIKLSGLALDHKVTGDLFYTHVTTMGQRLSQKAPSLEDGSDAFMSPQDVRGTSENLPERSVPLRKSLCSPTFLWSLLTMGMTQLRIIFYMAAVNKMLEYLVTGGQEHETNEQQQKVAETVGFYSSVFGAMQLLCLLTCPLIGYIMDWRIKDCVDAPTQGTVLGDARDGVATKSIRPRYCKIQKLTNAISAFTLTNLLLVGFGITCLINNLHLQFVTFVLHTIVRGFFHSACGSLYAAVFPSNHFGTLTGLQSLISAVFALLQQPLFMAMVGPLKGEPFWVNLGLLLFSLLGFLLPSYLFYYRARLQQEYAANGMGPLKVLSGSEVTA
UniProt A1A5C7: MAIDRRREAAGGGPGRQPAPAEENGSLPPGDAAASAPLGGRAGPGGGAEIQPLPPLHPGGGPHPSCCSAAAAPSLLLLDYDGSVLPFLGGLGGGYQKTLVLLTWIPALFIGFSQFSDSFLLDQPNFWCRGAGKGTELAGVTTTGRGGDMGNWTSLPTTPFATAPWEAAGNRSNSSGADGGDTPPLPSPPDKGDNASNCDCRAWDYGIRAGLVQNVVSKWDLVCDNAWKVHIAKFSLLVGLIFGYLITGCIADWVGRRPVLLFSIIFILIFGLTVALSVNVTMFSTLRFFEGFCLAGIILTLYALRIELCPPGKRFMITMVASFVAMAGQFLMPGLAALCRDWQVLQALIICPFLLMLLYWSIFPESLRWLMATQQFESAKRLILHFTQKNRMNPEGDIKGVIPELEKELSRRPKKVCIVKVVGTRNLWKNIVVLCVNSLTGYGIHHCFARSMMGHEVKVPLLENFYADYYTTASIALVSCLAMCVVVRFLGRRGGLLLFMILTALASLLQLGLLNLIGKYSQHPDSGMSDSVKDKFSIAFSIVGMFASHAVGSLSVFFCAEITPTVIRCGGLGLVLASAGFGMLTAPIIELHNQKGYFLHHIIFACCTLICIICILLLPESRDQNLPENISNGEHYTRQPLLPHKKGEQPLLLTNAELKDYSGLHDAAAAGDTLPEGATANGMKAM
UniProt Q96K37: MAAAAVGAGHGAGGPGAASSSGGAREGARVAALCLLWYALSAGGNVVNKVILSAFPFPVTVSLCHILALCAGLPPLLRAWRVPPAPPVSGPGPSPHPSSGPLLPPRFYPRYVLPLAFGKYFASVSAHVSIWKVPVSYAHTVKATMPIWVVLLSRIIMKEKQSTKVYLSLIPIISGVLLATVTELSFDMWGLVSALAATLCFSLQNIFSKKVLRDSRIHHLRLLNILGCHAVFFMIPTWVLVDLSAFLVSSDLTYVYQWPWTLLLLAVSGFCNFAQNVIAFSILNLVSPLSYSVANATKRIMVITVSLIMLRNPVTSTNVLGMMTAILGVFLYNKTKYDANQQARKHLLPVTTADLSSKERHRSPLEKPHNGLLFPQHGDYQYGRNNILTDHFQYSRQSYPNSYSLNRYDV
UniProt P53794: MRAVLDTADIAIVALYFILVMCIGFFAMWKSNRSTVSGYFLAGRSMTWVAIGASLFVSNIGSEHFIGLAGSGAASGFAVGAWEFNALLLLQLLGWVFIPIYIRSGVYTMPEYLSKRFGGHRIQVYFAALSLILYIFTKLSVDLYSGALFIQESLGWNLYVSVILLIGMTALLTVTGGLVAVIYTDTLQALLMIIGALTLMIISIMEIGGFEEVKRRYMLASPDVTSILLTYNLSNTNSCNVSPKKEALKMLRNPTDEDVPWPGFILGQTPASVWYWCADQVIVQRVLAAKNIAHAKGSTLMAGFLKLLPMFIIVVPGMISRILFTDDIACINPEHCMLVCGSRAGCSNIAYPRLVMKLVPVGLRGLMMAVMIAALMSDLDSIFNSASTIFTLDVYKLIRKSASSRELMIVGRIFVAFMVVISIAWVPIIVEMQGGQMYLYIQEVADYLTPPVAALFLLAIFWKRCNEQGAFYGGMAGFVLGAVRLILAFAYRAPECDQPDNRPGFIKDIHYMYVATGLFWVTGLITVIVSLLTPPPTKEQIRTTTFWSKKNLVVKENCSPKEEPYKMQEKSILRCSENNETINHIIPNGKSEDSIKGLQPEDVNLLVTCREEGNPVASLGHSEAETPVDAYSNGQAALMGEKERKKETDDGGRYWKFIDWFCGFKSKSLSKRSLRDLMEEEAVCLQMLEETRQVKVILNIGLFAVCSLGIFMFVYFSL
UniProt P78381: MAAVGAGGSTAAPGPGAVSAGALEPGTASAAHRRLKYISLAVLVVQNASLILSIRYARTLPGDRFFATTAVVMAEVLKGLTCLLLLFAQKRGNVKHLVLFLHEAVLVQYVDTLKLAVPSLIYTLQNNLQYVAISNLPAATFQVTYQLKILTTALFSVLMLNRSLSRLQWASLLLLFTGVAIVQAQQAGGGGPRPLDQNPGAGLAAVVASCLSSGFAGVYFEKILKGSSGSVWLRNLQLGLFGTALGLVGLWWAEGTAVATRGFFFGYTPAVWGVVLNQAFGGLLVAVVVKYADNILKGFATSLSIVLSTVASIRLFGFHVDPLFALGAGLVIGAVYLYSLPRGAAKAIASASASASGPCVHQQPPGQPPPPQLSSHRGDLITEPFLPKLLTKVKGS
UniProt P12235: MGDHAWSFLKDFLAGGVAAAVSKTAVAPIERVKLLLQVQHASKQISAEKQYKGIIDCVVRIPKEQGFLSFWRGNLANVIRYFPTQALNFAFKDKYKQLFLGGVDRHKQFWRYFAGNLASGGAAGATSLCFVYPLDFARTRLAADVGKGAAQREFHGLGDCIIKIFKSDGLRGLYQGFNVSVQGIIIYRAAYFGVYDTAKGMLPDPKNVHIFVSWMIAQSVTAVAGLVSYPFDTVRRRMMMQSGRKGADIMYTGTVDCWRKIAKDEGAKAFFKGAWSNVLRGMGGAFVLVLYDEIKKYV
UniProt Q9HC21: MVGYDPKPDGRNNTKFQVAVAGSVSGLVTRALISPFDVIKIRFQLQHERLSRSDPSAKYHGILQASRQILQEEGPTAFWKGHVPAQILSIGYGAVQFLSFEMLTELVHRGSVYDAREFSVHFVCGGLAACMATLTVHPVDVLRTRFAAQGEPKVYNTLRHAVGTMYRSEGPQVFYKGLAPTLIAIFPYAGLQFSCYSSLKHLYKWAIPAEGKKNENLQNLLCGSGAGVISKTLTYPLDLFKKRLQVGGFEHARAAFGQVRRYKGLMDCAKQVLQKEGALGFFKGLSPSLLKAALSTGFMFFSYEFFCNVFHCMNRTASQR
UniProt Q96H78: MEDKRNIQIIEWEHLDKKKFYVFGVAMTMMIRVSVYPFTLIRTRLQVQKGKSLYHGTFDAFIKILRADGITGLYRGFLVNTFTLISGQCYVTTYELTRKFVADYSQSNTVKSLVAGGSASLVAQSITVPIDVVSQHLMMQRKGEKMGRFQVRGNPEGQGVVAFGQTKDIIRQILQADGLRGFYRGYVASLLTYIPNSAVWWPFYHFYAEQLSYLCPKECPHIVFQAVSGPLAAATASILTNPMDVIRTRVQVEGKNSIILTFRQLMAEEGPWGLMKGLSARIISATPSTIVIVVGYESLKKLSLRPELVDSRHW
UniProt Q96AG3: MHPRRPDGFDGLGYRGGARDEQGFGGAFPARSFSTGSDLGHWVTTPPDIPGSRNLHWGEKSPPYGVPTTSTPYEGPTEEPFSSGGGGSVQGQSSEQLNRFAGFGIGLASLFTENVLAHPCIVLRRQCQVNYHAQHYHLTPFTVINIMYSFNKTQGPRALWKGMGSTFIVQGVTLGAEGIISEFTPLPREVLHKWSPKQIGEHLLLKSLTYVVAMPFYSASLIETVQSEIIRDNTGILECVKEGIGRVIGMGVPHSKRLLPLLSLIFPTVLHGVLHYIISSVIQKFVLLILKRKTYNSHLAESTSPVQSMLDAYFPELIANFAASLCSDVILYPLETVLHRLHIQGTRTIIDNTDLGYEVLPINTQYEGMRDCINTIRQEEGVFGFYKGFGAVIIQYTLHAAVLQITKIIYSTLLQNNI
UniProt Q9NY26: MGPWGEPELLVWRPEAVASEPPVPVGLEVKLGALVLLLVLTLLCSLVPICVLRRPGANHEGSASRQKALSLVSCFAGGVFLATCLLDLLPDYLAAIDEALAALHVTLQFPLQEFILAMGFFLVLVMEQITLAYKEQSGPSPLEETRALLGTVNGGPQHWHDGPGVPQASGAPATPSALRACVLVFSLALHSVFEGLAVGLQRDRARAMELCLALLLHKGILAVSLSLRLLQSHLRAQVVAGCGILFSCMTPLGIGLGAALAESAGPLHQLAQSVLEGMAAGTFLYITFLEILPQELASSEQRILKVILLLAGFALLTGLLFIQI
UniProt Q8IVJ1: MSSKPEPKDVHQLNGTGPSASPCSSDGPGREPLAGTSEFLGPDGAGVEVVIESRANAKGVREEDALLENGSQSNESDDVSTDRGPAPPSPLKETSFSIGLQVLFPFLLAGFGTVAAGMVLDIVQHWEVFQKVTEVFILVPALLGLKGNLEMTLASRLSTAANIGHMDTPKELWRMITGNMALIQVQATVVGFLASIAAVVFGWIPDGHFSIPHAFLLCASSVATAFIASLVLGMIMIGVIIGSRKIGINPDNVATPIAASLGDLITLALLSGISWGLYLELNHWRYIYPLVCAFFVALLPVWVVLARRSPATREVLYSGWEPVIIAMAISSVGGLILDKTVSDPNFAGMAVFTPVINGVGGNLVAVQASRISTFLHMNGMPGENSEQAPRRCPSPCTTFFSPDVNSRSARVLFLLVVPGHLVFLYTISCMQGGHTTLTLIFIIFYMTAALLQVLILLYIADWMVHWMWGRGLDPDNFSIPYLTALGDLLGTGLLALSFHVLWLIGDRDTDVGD
UniProt Q9Y2P4: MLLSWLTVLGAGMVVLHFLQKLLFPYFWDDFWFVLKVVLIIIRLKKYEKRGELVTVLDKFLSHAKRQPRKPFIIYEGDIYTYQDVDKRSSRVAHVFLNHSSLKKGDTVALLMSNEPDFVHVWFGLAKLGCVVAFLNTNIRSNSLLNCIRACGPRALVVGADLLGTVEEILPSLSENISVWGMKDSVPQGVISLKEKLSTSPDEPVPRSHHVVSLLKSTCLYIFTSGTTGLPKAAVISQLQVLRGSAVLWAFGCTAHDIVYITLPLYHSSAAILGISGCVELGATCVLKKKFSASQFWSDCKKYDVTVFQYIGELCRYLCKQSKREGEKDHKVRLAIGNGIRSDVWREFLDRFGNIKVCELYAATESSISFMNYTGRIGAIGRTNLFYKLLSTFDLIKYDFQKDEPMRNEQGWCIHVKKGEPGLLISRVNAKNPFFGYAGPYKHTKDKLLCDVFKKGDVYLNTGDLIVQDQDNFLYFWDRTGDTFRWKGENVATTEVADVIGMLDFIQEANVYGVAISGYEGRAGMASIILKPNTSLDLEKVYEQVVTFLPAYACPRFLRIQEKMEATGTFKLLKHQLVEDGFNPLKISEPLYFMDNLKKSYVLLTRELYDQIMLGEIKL
UniProt Q96GZ6: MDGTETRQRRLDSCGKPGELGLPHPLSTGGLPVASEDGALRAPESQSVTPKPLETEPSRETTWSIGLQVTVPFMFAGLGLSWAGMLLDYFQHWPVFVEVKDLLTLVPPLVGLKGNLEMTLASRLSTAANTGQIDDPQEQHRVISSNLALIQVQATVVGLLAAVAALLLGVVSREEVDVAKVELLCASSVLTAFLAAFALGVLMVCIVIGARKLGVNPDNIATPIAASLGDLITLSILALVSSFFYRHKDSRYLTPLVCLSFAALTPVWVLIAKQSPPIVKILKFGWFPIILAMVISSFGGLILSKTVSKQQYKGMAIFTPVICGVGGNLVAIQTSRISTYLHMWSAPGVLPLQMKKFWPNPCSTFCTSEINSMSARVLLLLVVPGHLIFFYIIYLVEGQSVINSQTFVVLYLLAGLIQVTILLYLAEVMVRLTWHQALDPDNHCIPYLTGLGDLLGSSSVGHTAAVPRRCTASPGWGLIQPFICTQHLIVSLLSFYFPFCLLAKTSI
UniProt Q9BZD2: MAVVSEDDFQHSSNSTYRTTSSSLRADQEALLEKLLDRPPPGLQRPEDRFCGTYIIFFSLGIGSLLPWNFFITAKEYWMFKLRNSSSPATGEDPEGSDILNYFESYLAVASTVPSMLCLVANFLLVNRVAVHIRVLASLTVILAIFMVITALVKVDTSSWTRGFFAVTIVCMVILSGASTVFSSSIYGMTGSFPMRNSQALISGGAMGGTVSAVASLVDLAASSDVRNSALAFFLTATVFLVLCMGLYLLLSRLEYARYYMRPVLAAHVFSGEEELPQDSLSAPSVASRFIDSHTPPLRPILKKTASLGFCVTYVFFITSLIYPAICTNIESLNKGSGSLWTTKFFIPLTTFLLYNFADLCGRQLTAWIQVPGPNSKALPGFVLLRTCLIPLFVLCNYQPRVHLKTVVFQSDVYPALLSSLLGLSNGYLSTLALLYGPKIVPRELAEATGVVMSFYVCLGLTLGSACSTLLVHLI

Key:
Assay in all cases: log2 fold change, soluble protein after heating vs DMSO (PISA); higher = thermal stabilisation; K562 lysate, 10 uM; active = over 0.2 and 3.5 SD of the protein, either way, in both replicates (recomputed)
[1] = compound: NCC(=O)Nc1ccc(-n2nc(C(F)(F)F)cc2-c2ccc3c(ccc4ccccc43)c2)cc1
Summary of the method: (§1)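 K562 pellets were dounce-homogenised in PBS pH 7.4 with 1 mM MgCl2, and the crude extract at 1 mg/mL protein was treated with 10 μM compound for 30 min. Aliquots were heated for 3 min across 48°C-58°C, pooled, and brought to 0.5% NP-40 at 4°C; soluble protein was the supernatant after 21,000xg for 90 min. Soluble protein was quantified by TMTpro 16plex LC-MS/MS with channel sums equalised, and reported as log2 fold change in thermal stability against DMSO controls, with values from duplicates.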

vorinostat = compound: O=C(CCCCCCC(=O)Nc1ccccc1)NO [vorinostat]
Summary of the method: as §1

silmitasertib = compound: O=C(O)c1ccc2c(c1)nc(Nc1cccc(Cl)c1)c1ccncc12 [silmitasertib]
Summary of the method: as §1

[2] = compound: O=C1NC(=O)C(c2cnc3ccccn23)=C1c1cn2c3c(cc(F)cc13)CN(C(=O)N1CCCCC1)CC2
Summary of the method: as §1

entospletinib = compound: c1cn2cc(-c3ccc4cn[nH]c4c3)nc(Nc3ccc(N4CCOCC4)cc3)c2n1 [entospletinib]
Summary of the method: as §1

Measured: log2 fold change

SLC25A24 (UniProt Q6NUK1)
inactive: [1] 0.003 | vorinostat 0.103 | silmitasertib -0.014 | [2] -0.027 | entospletinib 0.027

SLC2A1 (UniProt P11166)
inactive: [1] 0.025 | vorinostat 0.122 | silmitasertib 0.019 | [2] 0.035 | entospletinib 0.029

SLC38A5 (UniProt Q8WUX1)
inactive: [1] 0.02 | vorinostat 0.106 | silmitasertib 0 | [2] -0.018 | entospletinib 0.008

SLC43A1 (UniProt O75387)
inactive: [1] 0.029 | vorinostat 0.124 | silmitasertib -0.028 | [2] 0.04 | entospletinib -0.01

SLC52A2 (UniProt Q9HAB3)
inactive: [1] 0.104 | vorinostat 0.053 | silmitasertib -0.021 | [2] 0.004 | entospletinib 0.004

SLC38A10 (UniProt Q9HBR0)
inactive: [1] -0.034 | vorinostat 0.044 | silmitasertib -0.013 | [2] 0.08 | entospletinib 0.024

SLC37A4 isoform 2 (UniProt O43826)
inactive: [1] -0.014 | vorinostat 0.13 | silmitasertib 0.058 | [2] -0.074 | entospletinib 0.007

SLC5A6 (UniProt Q9Y289)
inactive: [1] 0.033 | vorinostat 0.135 | silmitasertib -0.106 | [2] 0.02 | entospletinib 0.029

SLC22A23 (UniProt A1A5C7)
inactive: [1] 0.07 | vorinostat 0.132 | silmitasertib 0.029 | [2] -0.082 | entospletinib 0.011

SLC25A38 (UniProt Q96DW6)
inactive: [1] -0.093 | vorinostat 0.109 | silmitasertib 0.129 | [2] -0.019 | entospletinib -0.075

SLC9A1 (UniProt P19634)
inactive: [1] 0.025 | vorinostat 0.13 | silmitasertib -0.022 | [2] 0.026 | entospletinib -0.035

SLC35E1 (UniProt Q96K37)
inactive: [1] 0 | vorinostat -0.029 | silmitasertib 0.035 | [2] -0.021 | entospletinib -0.101

SLC9A3R2 (UniProt Q15599)
inactive: [1] 0.072 | vorinostat 0.1 | silmitasertib -0.046 | [2] 0 | entospletinib -0.008

SLC5A3 (UniProt P53794)
inactive: [1] 0.053 | vorinostat 0.006 | silmitasertib -0.026 | [2] 0.018 | entospletinib 0.008

SLC35A2 isoform 4 (UniProt P78381)
inactive: [1] -0.011 | vorinostat 0.066 | silmitasertib -0.037 | [2] 0.023 | entospletinib 0.011

SLC2A4 (UniProt P14672)
inactive: [1] -0.03 | vorinostat 0.131 | silmitasertib -0.144 | [2] -0.042 | entospletinib -0.003

SLC40A1 (UniProt Q9NP59)
inactive: [1] 0.005 | vorinostat 0.046 | silmitasertib 0 | [2] -0.016 | entospletinib 0.022

SLC26A6 (UniProt Q9BXS9)
inactive: [1] 0.012 | vorinostat 0.048 | silmitasertib 0.03 | [2] 0.021 | entospletinib -0.111

SLC6A8 (UniProt P48029)
inactive: [1] 0.086 | vorinostat -0.007 | silmitasertib 0.014 | [2] -0.059 | entospletinib -0.113

SLC39A14 (UniProt Q15043)
inactive: [1] 0.068 | vorinostat 0.178 | silmitasertib -0.006 | [2] -0.034 | entospletinib 0.002

SLC30A6 isoform 2 (UniProt Q6NXT4)
inactive: [1] 0.014 | vorinostat 0.11 | silmitasertib 0.01 | [2] 0.001 | entospletinib 0.064

SLC25A25 isoform 3 (UniProt Q6KCM7)
inactive: [1] 0.016 | vorinostat 0.054 | silmitasertib 0.02 | [2] -0.036 | entospletinib 0.001

SLC25A4 (UniProt P12235)
inactive: [1] -0.023 | vorinostat -0.053 | silmitasertib 0.009 | [2] -0.074 | entospletinib 0.037

SLC25A33 (UniProt Q9BSK2)
inactive: [1] 0.009 | vorinostat -0.022 | silmitasertib -0.033 | [2] 0.033 | entospletinib 0.003

SLC29A1 isoform 2 (UniProt Q99808)
inactive: [1] 0.03 | vorinostat 0.124 | silmitasertib -0.023 | [2] -0.044 | entospletinib 0.066

SLC39A8 (UniProt Q9C0K1)
inactive: [1] -0.068 | vorinostat 0.03 | silmitasertib 0.027 | [2] -0.056 | entospletinib -0.04

SLC25A14 isoform 3 (UniProt O95258)
inactive: [1] 0.029 | vorinostat 0.073 | silmitasertib -0.005 | [2] -0.014 | entospletinib 0.005

SLC25A19 (UniProt Q9HC21)
inactive: [1] -0.02 | vorinostat 0.085 | silmitasertib -0.003 | [2] -0.036 | entospletinib 0.043

SLC25A31 (UniProt Q9H0C2)
inactive: [1] -0.017 | vorinostat 0.007 | silmitasertib 0.001 | [2] -0.039 | entospletinib 0.037

SLC38A9 (UniProt Q8NBW4)
inactive: [1] 0.171 | vorinostat 0.092 | silmitasertib -0.006 | [2] 0.023 | entospletinib 0.01

SLC38A1 (UniProt Q9H2H9)
inactive: [1] -0.015 | vorinostat 0.099 | silmitasertib 0 | [2] 0.008 | entospletinib -0.015

SLC4A1 (UniProt P02730)
inactive: [1] 0.052 | vorinostat 0.284 | silmitasertib 0.088 | [2] 0.105 | entospletinib -0.059

SLC6A8 isoform 2 (UniProt P48029)
inactive: [1] 0.02 | vorinostat 0.292 | silmitasertib -0.114 | [2] 0.059 | entospletinib -0.072

SMAD2 (UniProt Q15796)
active: vorinostat -0.752
inactive: [1] -0.025 | silmitasertib -0.051 | [2] 0.008 | entospletinib -0.049

SLC30A1 (UniProt Q9Y6M5)
inactive: [1] 0.033 | vorinostat -0.056 | silmitasertib 0.017 | [2] 0.052 | entospletinib -0.021

SLC25A44 (UniProt Q96H78)
inactive: [1] 0.13 | vorinostat 0.025 | silmitasertib -0.02 | [2] -0.056 | entospletinib -0.026

SLC44A2 (UniProt Q8IWA5)
inactive: [1] -0.071 | vorinostat 0.033 | silmitasertib 0.038 | [2] -0.045 | entospletinib -0.005

SLC25A1 (UniProt P53007)
inactive: [1] -0.025 | vorinostat -0.139 | silmitasertib 0.014 | [2] -0.03 | entospletinib 0.029

SLC25A46 (UniProt Q96AG3)
inactive: [1] -0.015 | vorinostat 0.126 | silmitasertib -0.007 | [2] 0.014 | entospletinib 0.012

SLC25A26 (UniProt Q70HW3)
inactive: [1] 0.037 | vorinostat 0.019 | silmitasertib -0.032 | [2] -0.071 | entospletinib -0.04

SLC45A4 isoform 3 (UniProt Q5BKX6)
inactive: [1] -0.019 | vorinostat 0.117 | silmitasertib 0.08 | [2] -0.041 | entospletinib 0.04

SLMAP isoform 3 (UniProt Q14BN4)
inactive: [1] -0.001 | vorinostat -0.155 | silmitasertib 0.036 | [2] -0.013 | entospletinib -0.016

SLC9B2 (UniProt Q86UD5)
inactive: [2] -0.161

SLC35D1 (UniProt Q9NTN3)
inactive: [1] -0.211 | [2] -0.088

SLC36A4 (UniProt Q6YBV0)
inactive: vorinostat 0.218 | silmitasertib -0.073 | [2] 0.002 | entospletinib -0.119

SLC39A1 (UniProt Q9NY26)
inactive: vorinostat -0.399 | silmitasertib -0.014 | [2] 0.024

SLC41A1 (UniProt Q8IVJ1)
inactive: vorinostat 0.06 | silmitasertib -0.063 | entospletinib 0.007
active: [2] -0.37

SLC25A39 (UniProt Q9BZJ4)
inactive: vorinostat 0.057 | silmitasertib 0.114

SLC27A6 (UniProt Q9Y2P4)
inactive: vorinostat -0.152 | silmitasertib 0.072

SLC25A23 isoform 3 (UniProt Q9BV35)
inactive: vorinostat 0.04 | silmitasertib -0.014 | [2] -0.048

SLC29A2 (UniProt Q14542)
inactive: [1] -0.045 | vorinostat 0.139 | silmitasertib 0.117 | [2] 0.031 | entospletinib -0.06

SLC50A1 (UniProt Q9BRV3)
inactive: vorinostat 0.158 | silmitasertib -0.139 | [2] -0.042

SLC23A2 (UniProt Q9UGH3)
inactive: vorinostat 0.052 | silmitasertib 0.039 | [2] 0.068 | entospletinib 0.018

SLC41A3 isoform 9 (UniProt Q96GZ6)
inactive: [1] -0.021 | entospletinib -0.1

SLC9A7 (UniProt Q96T83)
inactive: [2] 0.105

Copied from the entries so far (two entries):
SLC30A1 (UniProt Q9Y6M5)
inactive: [1] 0.033 | vorinostat -0.056 | silmitasertib 0.017 | [2] 0.052 | entospletinib -0.021

SLC25A44 (UniProt Q96H78)
inactive: [1] 0.13 | vorinostat 0.025 | silmitasertib -0.02 | [2] -0.056 | entospletinib -0.026

Later entries

SLC29A3 (UniProt Q9BZD2)
inactive: vorinostat 0.068 | silmitasertib -0.054 | [2] -0.03

SLC35C2 isoform 3 (UniProt Q9NQQ7)
inactive: vorinostat 0.113 | silmitasertib 0.036 | [2] -0.135 | entospletinib 0.054
